These are yes or no findings as the source states them, for the method shown. Some results given as binding are weak or reduced against the parent protein; the word gives no strength. Where a sequence is shown, tags or fusion partners need not be part of it.

This experiment deals with Kin28 alone bait (pMK498). The experiment is described as follows: yeast two-hybrid, growth in the presence of 3-AT.

B1: YDL100c (activation domain fusion prey) (protein, UniProt Q12154 1-354, looked up, not shown: large carriers)
chain: MDLTVEPNLHSLITSTTHKWIFVGGKGGVGKTTSSCSIAIQMALSQPNKQFLLISTDPAHNLSDAFGEKFGKDARKVTGMNNLSCMEIDPSAALKDMNDMAVSRANNNGSDGQGDDLGSLLQGGALADLTGSIPGIDEALSFMEVMKHIKRQEQGEGETFDTVIFDTAPTGHTLRFLQLPNTLSKLLEKFGEITNKLGPMLNSFMGAGNVDISGKLNELKANVETIRQQFTDPDLTTFVCVCISEFLSLYETERLIQELISYDMDVNSIIVNQLLFAENDQEHNCKRCQARWKMQKKYLDQIDELYEDFHVVKMPLCAGEIRGLNNLTKFSQFLNKEYNPITDGKVIYELEDKE
In the case of B1, the binding result is “binds”.

B2: Pcl10 (activation domain fusion prey) (protein, UniProt P53124 1-433, looked up, not shown: large carriers)
chain: MDMTKNHTTDTEEFDDGDIRPVSLGIVDDYNASFELPLKPKFLQSENFSDLTSEWDQSRSNTPGLAEGKTEKAQPCGTTDSSKNRIHVEQLLESANEMNNYLAQNIENINNFQVGLLNGGKGLYSSMGDDSSACINGTNFSSTSNFELSDDELEDTTGCTSSIFDKDLFHQQNGLSIPRRRSPLFKSPTASFEIGDATDVEEQDIDDSIFSECSSITSFDMGGLHISLPHDEEEDQEKTKSESENPLLHGIPVDVEVPHISVDEALANFKETIELLLKLSGNRKCTGFNTRVEKKEYSNFYMKSKPTLSSADFLKRIQDKCEYQPTVYLVATFLIDTLFLTRDGNNILQLKLNLQEKEVHRMIIAAVRLSTKLLEDFVHSHEYFSKVCGISKRLLTKLEVSLLICVCNTKLMVSNRKLAASKLLLNELRSFCV
As to B2, the binding result is “binds”.

B3: Ccl1 (activation domain fusion prey) (protein, UniProt P37366 1-393, looked up, not shown: large carriers)
chain: MTDIQLNGKSTLDTPSATMSAKEKEAKLKSADENNKPPNYKRISDDDLYRHSSQYRMWSYTKDQLQEKRVDTNARAIAYIEENLLKFREAHNLTEEEIKVLEAKAIPLTMEEELDLVNFYAKKVQVIAQHLNLPTEVVATAISFFRRFFLENSVMQIDPKSIVHTTIFLACKSENYFISVDSFAQKAKSTRDSVLKFEFKLLESLKFSLLNHHPYKPLHGFFLDIQNVLYGKVDLNYMGQIYDRCKKRITAALLTDVVYFYTPPQITLATLLIEDEALVTRYLETKFPSREGSQESVPGNEKEEPQNDASTTEKNKEKSTESEEYSIDSAKLLTIIRECKSIIEDCKPPSTEEAKKIAAKNYYCQNPSTLIQKLKRKLNGEDTSSTVEKKQKT
For the molecule B3, the binding entry was “binds”.

The values above are taken from patent publication US20040259122A1.
